Measured values taken from article PMC6274985.
No constants are given. Whether binding was seen depends on the method and setting. Binding seen in cells or lysates may run through a third protein. Some entries that bind do so weakly or less than the wild type.

The chains behind the UniProt entries cited, without tags or fusion partners.
UniProt O15379: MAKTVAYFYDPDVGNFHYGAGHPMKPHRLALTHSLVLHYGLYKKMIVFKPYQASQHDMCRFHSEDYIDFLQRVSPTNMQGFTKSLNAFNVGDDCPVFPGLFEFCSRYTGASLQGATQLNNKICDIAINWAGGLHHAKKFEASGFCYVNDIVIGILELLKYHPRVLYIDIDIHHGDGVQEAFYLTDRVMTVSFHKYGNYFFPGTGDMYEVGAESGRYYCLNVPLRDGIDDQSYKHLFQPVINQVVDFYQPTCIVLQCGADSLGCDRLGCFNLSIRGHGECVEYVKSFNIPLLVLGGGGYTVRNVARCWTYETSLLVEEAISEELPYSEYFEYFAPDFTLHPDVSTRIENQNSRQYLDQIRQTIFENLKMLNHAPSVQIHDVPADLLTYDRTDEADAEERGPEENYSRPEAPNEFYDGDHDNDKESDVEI

Biological target: hemagglutinin (HA)-tagged forkhead box O1 (FoxO1) (UniProt Q9R1E0)

**Q.** How did the binding turn out when “flag-tagged histone deacetylase 3 (HDAC3) (from UniProt O15379 1-428) (enzyme)” was run?
**A.** binds
